Data taken from patent EP0520823A2, “Non-substrate peptide inhibitors of farnesyl protein transferase” (MERCK & CO. INC., priority 1991, dated 1992).
Part of at least one peptide drawing is inferred or uncertain, most often the ends.

How the values were obtained:
[1] = test system: farnesyl-protein transferase; assay: Mechanism of inhibition using homogenous, pure farnesyl-protein transferase; type: biochemical, bovine
[2] = test system: bovine brain farnesyl-protein transferase; assay: Tetrapeptides tested as farnesylation substrates (TLC and autoradiography); type: biochemical; settings: [³H]FPP, partially pure bovine brain farnesyl-protein transferase; TLC, autoradiography

## CC(C)C[C@@H](NC(=O)[C@@H](NC(=O)[C@@H](N)CS)C(C)C)C(=O)N[C@@H](CO)C(=O)O [CV(dL)S, Cys-Val-D-Leu-Ser]
[1]
  mechanism of inhibition with respect to Ras-CVLS protein substrate: competitive inhibitor
  mechanism of inhibition with respect to farnesyl diphosphate: not a competitive inhibitor
[2]
  farnesylation substrate: do not serve as effective substrates
